Experimental data reported in paper PMC3482226.

Assays:
NF-kB p50/p50 [1] = target: T1, NF-kB p50/p50 (UniProt A0A9J7F5I3); experiment: EMSA supershift; conditions: ER-stressed CHO nuclear extract; 10 mM Tris pH 7.5, 50 mM NaCl, 10% glycerol, 1% NP-40, 1 mM EDTA, 0.1 ug/ul poly-dI.dC, 0.01 pmol probe, 15 min room temperature; protein in an extract; label: 32P
T1 sequence (looked up, limits assumed): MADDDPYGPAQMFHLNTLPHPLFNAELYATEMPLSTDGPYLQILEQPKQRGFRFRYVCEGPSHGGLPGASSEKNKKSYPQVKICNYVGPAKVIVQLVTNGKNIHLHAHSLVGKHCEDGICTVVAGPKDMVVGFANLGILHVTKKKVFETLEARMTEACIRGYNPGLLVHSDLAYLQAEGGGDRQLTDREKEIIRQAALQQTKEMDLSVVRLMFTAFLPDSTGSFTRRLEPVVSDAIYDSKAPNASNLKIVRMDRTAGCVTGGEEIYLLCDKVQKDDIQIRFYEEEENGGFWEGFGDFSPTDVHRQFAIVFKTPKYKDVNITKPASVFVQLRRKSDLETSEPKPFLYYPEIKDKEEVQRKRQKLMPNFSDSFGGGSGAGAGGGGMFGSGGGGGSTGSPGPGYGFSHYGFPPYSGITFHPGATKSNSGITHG

NF-kB p65 + NF-kB p50 [2] = experiment: EMSA supershift; conditions: 10 mM Tris pH 7.5, 50 mM NaCl, 10% glycerol, 1% NP-40, 1 mM EDTA, 0.1 ug/ul poly-dI.dC, 0.01 pmol probe, 15 min room temperature, protein in an extract, label: 32P
NF-kB p50/p50 [3] = target: T1, NF-kB p50/p50; experiment: competition with a labelled probe; conditions: ER-stressed CHO nuclear extract; 10 mM Tris pH 7.5, 50 mM NaCl, 10% glycerol, 1% NP-40, 1 mM EDTA, 0.1 ug/ul poly-dI.dC, 0.01 pmol probe, 15 min room temperature; protein in an extract; folded or branched DNA
NF-kB p65 + NF-kB p50 [4] = experiment: competition with a labelled probe; conditions: 10 mM Tris pH 7.5, 50 mM NaCl, 10% glycerol, 1% NP-40, 1 mM EDTA, 0.1 ug/ul poly-dI.dC, 0.01 pmol probe, 15 min room temperature, protein in an extract, folded or branched DNA
[5] = DTT- or Tg-treated MEF nuclear extract
[6] = ER-stressed CHO nuclear extract

Sequence | binding result (NF-kB p50/p50 [1]) | binding result (NF-kB p65 + NF-kB p50 [2]; [5]) | binding result (NF-kB p65 + NF-kB p50 [2]; [6]) | binding result (NF-kB p50/p50 [3]) | binding result (NF-kB p65 + NF-kB p50 [4]; [5]) | binding result (NF-kB p65 + NF-kB p50 [4]; [6])
AGTTGAGGGGACTTTCCCAGGC (double strand) [NF-kB probe] | binds | binds | binds | – | – | –
CTGTCTACTTTCCAGGTTAGCTTCCTGGAAAGTAGACAG [kB mt competitor hairpin] | – | – | – | no binding | no binding | no binding
CTGGGGACTTTCCAGGTTAGCTTCCTGGAAAGTCCCCAG [kB wt competitor hairpin] | – | – | – | binds | binds | binds

For at least one entry, the source does not settle the construct or the ends of the probe. Where cells or extracts were used, other partners may take part. For part of these data: Negatives hold for the conditions tested. For part of these data: Where a protein sequence is shown, tags need not be part of it.
